Values of other authors, collected in patent US20030109519A1, “Use of selective potassium channel openers” (priority 2001, published 2003).
At least one structure is not confirmed: it was looked up by name or label, or the drawing left a doubt.

System: women with former Gestational Diabetes Mellitus (GDM)
Details: women with former GDM treated with troglitazone; Buchanan et al. 2001; cited from earlier work

Which “conversion rate to diabetes” value does the source give for `Cc1c(C)c2c(c(C)c1O)CCC(C)(COc1ccc(CC3SC(=O)NC3=O)cc1)O2` (stereo not shown) [troglitazone] here?
Its value is “reduced conversion rate to diabetes”.
